Experimental data from article PMC4667048.

Tests used:
Assay in all cases: two-hybrid; pairs of pDEST-AD and pDEST-DB vectors co-transformed into yeast strain AH109; growth on lower stringency plates, -HWL with 20 mM 3AT, after 6 days (Figure 6A; for AP1, mAP1 and FUL the text cites Figure 6 as a whole)
[1] = molecular target: T1, … (PI) (Arabidopsis thaliana) (UniProt P48007)
T1 sequence: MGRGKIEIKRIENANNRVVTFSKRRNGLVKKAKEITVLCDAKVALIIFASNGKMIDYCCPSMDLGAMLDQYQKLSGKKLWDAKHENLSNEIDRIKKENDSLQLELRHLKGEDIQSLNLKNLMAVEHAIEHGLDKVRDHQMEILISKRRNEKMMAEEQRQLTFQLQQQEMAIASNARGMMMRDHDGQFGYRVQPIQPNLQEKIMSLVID

[2] = molecular target: T2, AGAMOUS-LIKE 24 (AGL24) (Arabidopsis thaliana) (UniProt O82794)
T2 sequence: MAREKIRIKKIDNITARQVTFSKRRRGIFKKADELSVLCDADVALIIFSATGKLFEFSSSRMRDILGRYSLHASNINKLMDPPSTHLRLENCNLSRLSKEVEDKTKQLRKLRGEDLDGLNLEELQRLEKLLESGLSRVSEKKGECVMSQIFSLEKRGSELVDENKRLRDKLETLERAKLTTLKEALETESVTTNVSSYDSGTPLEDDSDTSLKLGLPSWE

[3] = molecular target: T3, APETALA3 (AP3) (Arabidopsis thaliana) (UniProt P35632)
T3 sequence: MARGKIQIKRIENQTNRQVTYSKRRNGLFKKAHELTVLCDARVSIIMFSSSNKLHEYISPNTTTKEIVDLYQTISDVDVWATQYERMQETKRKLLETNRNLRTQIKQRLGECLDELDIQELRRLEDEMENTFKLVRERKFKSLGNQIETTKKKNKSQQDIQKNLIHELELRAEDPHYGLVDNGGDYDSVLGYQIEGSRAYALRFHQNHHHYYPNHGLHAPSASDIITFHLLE

- binding [1]: no binding
- binding [2]: binds
- binding [3]: no binding
Substance: tFUL (FUL truncated just before the FUL-like motif) (Arabidopsis thaliana) (domain or fragment)

No constants are given. Whether binding was seen depends on the method and setting. For part of these data: Binding calls can cover weak binding; strength is not graded here.
